The nature of the experiment: qHTS Assay for Lipid Storage Modulators in Drosophila S3 Cells.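 As to cell number change: cells counted by Cell Tracker Red CMTPX staining in the red channel.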 To be noted: BODIPY lipid droplet fluorescence, 18-24 h; for cell number change: measured here: cell count max response, cells fed with added oleic acid. The method in brief: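 Drosophila S3 cells loaded with oleic acid (400 uM, as added) and compounds at several concentrations; lipid droplets imaged by 488-nm laser-scanning cytometry, 500–530 nm intensity and object ratio to cell channel. Percent activity normalized to 20 uM Triacsin C.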

Where [1] appears, read: measured here: lipid fluorescence (Fed channel) AC50, cells fed with added oleic acid.
Where [2] appears, read: measured here: cell number channel AC50, cells fed with added oleic acid.

Results on 39 compounds are retold here after PubChem BioAssay AID2685 (National Center for Advancing Translational Sciences (NCATS), 2010).

Molecules are shown by their SMILES. This is one part of the list. Further columns of the screen follow, without active or inactive calls. The list favours compounds with an active or inconclusive main result. Potencies come from curve fits of mixed quality, noted in brackets.

For `COc1ccc(NC(=S)NCCN2CCC(C)CC2)cc1Cl`, the cell number change was -24.3%. For the same compound, under setting [1], the AC50 was 2.82 µM [falling, partial curve]. For the compound `COc1ccc2c(c1)c(=O)oc1c(C)c(OC(C)C(=O)N[C@@H](Cc3c[nH]c4ccc(O)cc34)C(=O)O)ccc12` (stereo not given in full), the cell number change was 7.45%.

`CCNc1c(NS(=O)(=O)c2ccc(C3CCCCC3)cc2)c(=O)oc2ccccc12`: the AC50 is 1.3 µM [falling, partial curve, poor fit] under setting [2] and 1.64 µM [falling, partial curve] under setting [1]. Take `COC(=O)C(Cc1ccccc1)NC(=O)CC(C)CC(=O)Nc1ccc(C)cc1` (stereo not given): the cell number change is -50.8%. Besides, the half-maximal activity concentration (AC50) under setting [2] is 13 µM [falling, partial curve, poor fit]. The concentration at half-maximal activity (AC50) under setting [1] was 13 µM [falling, partial curve].

Turning to `O=C(CN1C(=O)CCC1=O)Nc1nc(-c2ccc(Oc3ccccc3)cc2)cs1`, the cell number change came out at 3.58%. Besides, the AC50 under setting [1] was 32.6 µM [falling, single point]. As to `Cc1ccc(N(CC(=O)NCCc2ccc(Cl)cc2)S(=O)(=O)c2c(C)noc2C)cc1`, the cell number change was -7.98%. As for `Cc1cc(C)c(S(=O)(=O)N2CCCCC2CCNC(=O)C(=O)NCC2CCCO2)c(C)c1` (stereo not given), the cell number change is -14.5%. For the same compound, the AC50 under setting [1] is 3.26 µM [falling, partial curve]. `CCC(=O)Nc1nc(-c2ccc3c(c2)CC(C)N3S(C)(=O)=O)cs1` (stereo not given): the cell number change is -46.5%. The AC50 under setting [2] is 20.6 µM [falling, single point]. Also, the AC50 under setting [1] is 18.4 µM [falling, partial curve, poor fit].

In the case of `Cc1ccc(N2CCN(S(=O)(=O)c3c(C)noc3C)CC2C)cc1` (stereo not given), under setting [1], the AC50 is 0.00517 µM [rising, full curve, poor fit]. With `CCOC(=O)Cc1nnc(Nc2ccc(C(=O)NC)cc2)c2ccccc12`, the cell number change amounted to 24.8%. Further, under setting [1], the AC50 is 32.6 µM [rising, single point]. Consider `Cc1ccc(Cl)cc1NS(=O)(=O)c1c(C)[nH]c(=O)[nH]c1=O`, for which the AC50 under setting [1] is 25.9 µM [rising, single point]. As to `CCN(c1ccccc1)S(=O)(=O)c1ccc(Cl)c(NC(=O)COC(=O)c2cccc(OC)c2O)c1`, the cell number change is -30.7%. Further, the half-maximal activity concentration (AC50) under setting [2] was 4.11 µM [rising, partial curve]. Further, under setting [1], the AC50 was 3.26 µM [rising, partial curve]. `CCN(C(=O)Nc1ccccc1)c1ccccc1`: the cell number change was -0.762%. For the same compound, the half-maximal activity concentration (AC50) under setting [2] was 0.0103 µM [falling, full curve, poor fit]. The AC50 under setting [1] was 3.66 µM [falling, single point]. Take `COc1c(O)cc2oc(-c3ccc(O)c(O)c3)cc(=O)c2c1O`: the cell number change was 27.5%. Turning to `COc1cccc(-c2csc(NC(=O)Oc3ccccc3)n2)c1`, the cell number change is 26.4%. Turning to `COc1ccc(-c2nc3n(c(=O)c2C#N)CCCS3)cc1`, the AC50 reads like this: under setting [2], 4.11 µM [rising, partial curve, poor fit]; under setting [1], 0.082 µM [rising, full curve, poor fit].

In the case of `CCc1ccccc1NC(=O)CSc1n[nH]c(-c2cccnc2)n1`, the cell number change was -9.52%. Consider `CC(C)OC(=O)C(C)(C)Oc1ccc(C(=O)c2ccc(Cl)cc2)cc1`, for which the cell number change amounted to 33.7%. The AC50 under setting [2] was 13 µM [rising, partial curve, poor fit]. The concentration at half-maximal activity (AC50) under setting [1] is 23.1 µM [rising, partial curve].

For the compound `O=C(NCCCN1CCN(c2ccccc2F)CC1)C1CCC(=O)N1C1CCCC1` (stereo not given), the cell number change was -0.538%. Regarding `Cc1ccc(-n2nc3c(=O)n(CC(=O)c4ccc(F)cc4)nc(C)c3c2C)cc1`, the cell number change is 19.2%. Also, the AC50 under setting [1] is 9.2 µM [rising, partial curve, poor fit]. `Cn1c(=O)c2c(nc(Sc3ncnn3CC(=O)NC(C)(C)C)n2C)n(C)c1=O`: the cell number change was -18.7%. As to `O=C(Nc1ccc(S(=O)(=O)Nc2ncccn2)cc1)c1ccc(S(=O)(=O)N2CCCC2)cc1`, the cell number change was 15.6%.

For the compound `C[N+]1(C2CCC3CCCC2C3O)CCCC1` (stereo not given), the cell number change was -31.2%. Besides, under setting [1], the AC50 is 4.11 µM [falling, single point]. Turning to `COc1ccc(/C=N/n2c(N)nc3ccccc32)cc1OC`, the cell number change is -9.74%. In addition, the AC50 under setting [2] is 1.16 µM [rising, partial curve]. Further, the AC50 under setting [1] was 23.1 µM [rising, single point]. `CC(NC(=O)Cc1ccccc1)C1COc2ccccc2O1` (stereo not given): the cell number change worked out at 131%. Also, the AC50 under setting [2] was 20.6 µM [rising, partial curve]. As to `O=[N+]([O-])c1ccccc1CNC(Cc1ccccc1)c1ccccc1` (stereo not given), the cell number change worked out at 2.45%. In addition, the half-maximal activity concentration (AC50) under setting [1] was 0.461 µM [falling, partial curve, poor fit]. Consider `CCCCCCCCCCOC(=O)Cn1c(COc2ccccc2)[n+](C)c2ccccc21`, for which the cell number change is -13.5%. In addition, under setting [1], the AC50 is 3.66 µM [falling, full curve]. Consider `O=C1c2ccccc2-c2c1nc1c([n+]2[O-])CCCC1`, for which the cell number change was found to be 0.481%. Further, the AC50 under setting [1] is 9.2 µM [rising, single point]. For the compound `Cc1cccc(NC(=O)CSc2nc3[nH]ncc3c(=O)[nH]2)c1`, the cell number change was 0.663%. Still for that read-out and setting: for `COc1ccc(-c2ccc3c(N)c(C(=O)c4ccc(OC)c(OC)c4)sc3n2)cc1` the value was -3.31%; for `CN=Cc1sc2ccccc2c1O`, -17.9%.

In the case of `Cc1[nH]c2c(C)cccc2c(=O)c1Br`, the AC50 is, setting by setting: under setting [2], 0.259 µM [rising, partial curve, poor fit]; under setting [1], 0.291 µM [rising, partial curve, poor fit]. For `COCCNC(=O)c1c[nH]c2ccc(S(=O)(=O)Nc3ccccc3F)cc2c1=O`, the cell number change was -9.72%. Further, the AC50 under setting [2] is 6.51 µM [rising, single point]. For the same compound, the AC50 under setting [1] was 6.51 µM [falling, full curve]. As to `COC(=O)Nc1ccc(S(=O)(=O)NCCCCCC(=O)O)cc1`, the cell number change was -10.4%. Also, the AC50 under setting [1] was 29.1 µM [falling, single point]. Turning to `COc1ccccc1OCCNC(=O)c1cc([N+](=O)[O-])cc([N+](=O)[O-])c1`, the cell number change was -9.6%. Turning to `Cc1cccc(Cl)c1NC(=S)N1CCN(c2ccc([N+](=O)[O-])cn2)CC1`, the AC50 under setting [2] is 2.59 µM [rising, single point].

In the case of `Cc1nc([N+](=O)[O-])cn1CCC#N`, the cell number change is -7.05%. The half-maximal activity concentration (AC50) under setting [1] is 1.3 µM [falling, full curve, poor fit]. Take `O=[N+]([O-])c1cccc(CN2CCC(Cc3ccccc3)CC2)c1`: the cell number change worked out at 30.1%. Also, the AC50 under setting [2] is 25.9 µM [rising, single point]. Consider `COc1cc(C(=O)NCC(c2ccco2)N2CCCC2)ccc1OCc1ccccc1` (stereo not given), for which the cell number change was -1.87%. The AC50 under setting [1] is 29.1 µM [falling, single point].

What is called AC50 is the midpoint of the concentration-response curve, whichever way the signal moves.
